No constants are given. Whether binding was seen depends on the method and setting. In cells and extracts the contact can be indirect. Some binding calls cover weakened binding; strength is not graded here.
What was measured:
[1] = target: T1, Smc3(K160C) (S. cerevisiae) (UniProt P47037); assay: cross-linking
T1 sequence: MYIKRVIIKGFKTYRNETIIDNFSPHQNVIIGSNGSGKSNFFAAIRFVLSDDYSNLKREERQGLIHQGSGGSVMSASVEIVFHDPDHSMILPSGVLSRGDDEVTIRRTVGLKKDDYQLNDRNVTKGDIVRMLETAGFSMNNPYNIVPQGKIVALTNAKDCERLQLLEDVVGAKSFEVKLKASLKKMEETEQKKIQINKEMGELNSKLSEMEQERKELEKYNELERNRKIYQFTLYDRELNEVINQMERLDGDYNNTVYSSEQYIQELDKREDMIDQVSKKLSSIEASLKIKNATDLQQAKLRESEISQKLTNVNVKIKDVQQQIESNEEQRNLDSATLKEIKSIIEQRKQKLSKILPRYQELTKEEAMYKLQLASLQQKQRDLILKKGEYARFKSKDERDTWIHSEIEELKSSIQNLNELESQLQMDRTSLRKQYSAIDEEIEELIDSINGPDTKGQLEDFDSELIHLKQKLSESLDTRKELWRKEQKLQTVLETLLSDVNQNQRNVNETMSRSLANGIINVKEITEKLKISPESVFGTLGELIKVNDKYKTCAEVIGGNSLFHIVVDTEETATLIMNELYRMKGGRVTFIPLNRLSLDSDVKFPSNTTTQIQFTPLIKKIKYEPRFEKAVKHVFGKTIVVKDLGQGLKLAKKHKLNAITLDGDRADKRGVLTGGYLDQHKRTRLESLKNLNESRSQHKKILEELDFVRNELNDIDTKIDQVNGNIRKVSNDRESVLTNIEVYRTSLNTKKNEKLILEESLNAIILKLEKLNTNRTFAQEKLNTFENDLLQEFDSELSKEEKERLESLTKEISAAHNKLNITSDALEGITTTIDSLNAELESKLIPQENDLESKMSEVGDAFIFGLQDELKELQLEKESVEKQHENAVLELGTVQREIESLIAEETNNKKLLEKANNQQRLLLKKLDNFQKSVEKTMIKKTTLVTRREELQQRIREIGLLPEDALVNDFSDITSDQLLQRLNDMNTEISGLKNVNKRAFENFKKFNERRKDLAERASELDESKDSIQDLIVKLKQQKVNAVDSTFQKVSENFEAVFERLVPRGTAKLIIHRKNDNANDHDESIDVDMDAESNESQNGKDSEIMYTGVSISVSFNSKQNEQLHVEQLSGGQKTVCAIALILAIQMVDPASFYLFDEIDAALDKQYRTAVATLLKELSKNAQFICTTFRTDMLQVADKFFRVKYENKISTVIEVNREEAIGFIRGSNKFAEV

[2] = target: T2, Smc3(K160C)-PK6 (S. cerevisiae) (UniProt P47037); assay: cross-linking
T2 sequence: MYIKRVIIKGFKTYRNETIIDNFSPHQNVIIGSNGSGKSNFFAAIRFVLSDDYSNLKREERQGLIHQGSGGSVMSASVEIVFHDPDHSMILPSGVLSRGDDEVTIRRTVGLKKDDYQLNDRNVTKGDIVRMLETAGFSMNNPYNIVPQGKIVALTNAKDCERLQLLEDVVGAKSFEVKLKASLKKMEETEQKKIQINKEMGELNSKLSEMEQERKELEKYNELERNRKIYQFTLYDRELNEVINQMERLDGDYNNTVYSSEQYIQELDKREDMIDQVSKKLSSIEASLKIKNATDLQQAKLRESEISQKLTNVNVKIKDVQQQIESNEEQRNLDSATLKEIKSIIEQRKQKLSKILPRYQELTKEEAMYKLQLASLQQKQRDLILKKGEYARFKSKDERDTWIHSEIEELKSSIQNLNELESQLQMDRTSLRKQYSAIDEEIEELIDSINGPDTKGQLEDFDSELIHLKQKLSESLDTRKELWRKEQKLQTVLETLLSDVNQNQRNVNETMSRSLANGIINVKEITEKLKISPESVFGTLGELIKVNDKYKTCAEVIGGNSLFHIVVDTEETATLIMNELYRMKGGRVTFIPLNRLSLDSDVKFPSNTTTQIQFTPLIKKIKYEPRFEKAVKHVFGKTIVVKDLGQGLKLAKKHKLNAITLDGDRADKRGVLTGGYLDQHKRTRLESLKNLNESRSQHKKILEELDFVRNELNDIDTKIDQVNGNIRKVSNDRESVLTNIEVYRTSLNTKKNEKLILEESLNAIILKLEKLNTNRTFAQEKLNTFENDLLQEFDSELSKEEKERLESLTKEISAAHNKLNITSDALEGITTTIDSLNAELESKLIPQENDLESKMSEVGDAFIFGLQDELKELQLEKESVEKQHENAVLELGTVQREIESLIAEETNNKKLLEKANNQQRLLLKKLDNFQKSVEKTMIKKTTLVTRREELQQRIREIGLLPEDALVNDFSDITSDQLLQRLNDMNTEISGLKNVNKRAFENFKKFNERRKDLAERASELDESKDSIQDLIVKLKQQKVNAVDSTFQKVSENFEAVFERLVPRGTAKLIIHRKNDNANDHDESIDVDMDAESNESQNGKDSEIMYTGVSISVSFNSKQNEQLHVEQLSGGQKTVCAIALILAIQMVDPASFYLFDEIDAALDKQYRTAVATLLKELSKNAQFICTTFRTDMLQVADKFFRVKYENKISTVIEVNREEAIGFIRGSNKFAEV

- binding [1]: binds
- binding [2]: binds
B1: Smc1(S161C)-HA6 (natural protein, S. cerevisiae, UniProt P32908 1-1225, looked up)
chain: MGRLVGLELSNFKSYRGVTKVGFGESNFTSIIGPNGSGKSNMMDAISFVLGVRSNHLRSNILKDLIYRGVLNDENSDDYDNEGAASSNPQSAYVKAFYQKGNKLVELMRIISRNGDTSYKIDGKTVSYKDYSIFLENENILIKAKNFLVFQGDVEQIAAQCPVELSRMFEEVSGSIQYKKEYEELKEKIEKLSKSATESIKNRRRIHGELKTYKEGINKNEEYRKQLDKKNELQKFQALWQLYHLEQQKEELTDKLSALNSEISSLKGKINNEMKSLQRSKSSFVKESAVISKQKSKLDYIFKDKEKLVSDLRLIKVPQQAAGKRISHIEKRIESLQKDLQRQKTYVERFETQLKVVTRSKEAFEEEIKQSARNYDKFKLNENDLKTYNCLHEKYLTEGGSILEEKIAVLNNDKREIQEELERFNKRADISKRRITEELSITGEKLDTQLNDLRVSLNEKNALHTERLHELKKLQSDIESANNQEYDLNFKLRETLVKIDDLSANQRETMKERKLRENIAMLKRFFPGVKGLVHDLCHPKKEKYGLAVSTILGKNFDSVIVENLTVAQECIAFLKKQRAGTASFIPLDTIETELPTLSLPDSQDYILSINAIDYEPEYEKAMQYVCGDSIICNTLNIAKDLKWKKGIRGKLVTIEGALIHKAGLMTGGISGDANNRWDKEEYQSLMSLKDKLLIQIDELSNGQRSNSIRAREVENSVSLLNSDIANLRTQVTQQKRSLDENRLEIKYHNDLIEKEIQPKITELKKKLDDLENTKDNLVKEKEALQNNIFKEFTSKIGFTIKEYENHSGELMRQQSKELQQLQKQILTVENKLQFETDRLSTTQRRYEKAQKDLENAQVEMKSLEEQEYAIEMKIGSIESKLEEHKNHLDELQKKFVTKQSELNSSEDILEDMNSNLQVLKRERDGIKEDIEKFDLERVTALKNCKISNINIPISSETTIDDLPISSTDNEAITISNSIDINYKGLPKKYKENNTDSARKELEQKIHEVEEILNELQPNARALERYDEAEGRFEVINNETEQLKAEEKKILNQFLKIKKKRKELFEKTFDYVSDHLDAIYRELTKNPNSNVELAGGNASLTIEDEDEPFNAGIKYHATPPLKRFKDMEYLSGGEKTVAALALLFAINSYQPSPFFVLDEVDAALDITNVQRIAAYIRRHRNPDLQFIVISLKNTMFEKSDALVGVYRQQQENSSKIITLDLSNYAE

— article doi:10.1101/495762 (bioRxiv, 2018)
